The target of data set [1] is T1, CEA (CEACAM5) on CEA-positive colon cancer cells (Homo sapiens) (UniProt P06731).
T1 sequence (looked up, limits assumed): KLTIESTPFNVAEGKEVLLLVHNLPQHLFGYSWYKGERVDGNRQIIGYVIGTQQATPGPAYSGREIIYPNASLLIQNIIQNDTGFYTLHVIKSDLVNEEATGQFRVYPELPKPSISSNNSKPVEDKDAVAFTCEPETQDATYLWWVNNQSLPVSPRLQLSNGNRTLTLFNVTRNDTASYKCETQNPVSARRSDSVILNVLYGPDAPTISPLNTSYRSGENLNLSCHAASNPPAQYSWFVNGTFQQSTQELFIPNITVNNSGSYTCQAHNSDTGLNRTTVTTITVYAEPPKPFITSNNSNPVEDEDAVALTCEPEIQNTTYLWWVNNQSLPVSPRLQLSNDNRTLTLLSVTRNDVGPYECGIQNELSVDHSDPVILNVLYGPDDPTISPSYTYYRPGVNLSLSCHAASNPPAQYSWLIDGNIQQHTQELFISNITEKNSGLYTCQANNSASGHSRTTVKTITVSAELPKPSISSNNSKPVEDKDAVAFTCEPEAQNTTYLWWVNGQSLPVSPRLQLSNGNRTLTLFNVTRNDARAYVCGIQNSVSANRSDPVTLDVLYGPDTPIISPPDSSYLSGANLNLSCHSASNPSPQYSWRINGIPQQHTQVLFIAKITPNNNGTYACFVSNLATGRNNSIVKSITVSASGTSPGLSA
In words: binding assay. The note with it: 2'-F pyrimidines (C and U), fluorescence staining of fixed LS174T and LoVo cells, 500 nM, protein details: endogenous, label: biotin.

Data set [2] addresses T2, NCEA in mammalian two-hybrid with DR5 (Homo sapiens) (UniProt P06731).
T2 sequence (looked up, limits assumed): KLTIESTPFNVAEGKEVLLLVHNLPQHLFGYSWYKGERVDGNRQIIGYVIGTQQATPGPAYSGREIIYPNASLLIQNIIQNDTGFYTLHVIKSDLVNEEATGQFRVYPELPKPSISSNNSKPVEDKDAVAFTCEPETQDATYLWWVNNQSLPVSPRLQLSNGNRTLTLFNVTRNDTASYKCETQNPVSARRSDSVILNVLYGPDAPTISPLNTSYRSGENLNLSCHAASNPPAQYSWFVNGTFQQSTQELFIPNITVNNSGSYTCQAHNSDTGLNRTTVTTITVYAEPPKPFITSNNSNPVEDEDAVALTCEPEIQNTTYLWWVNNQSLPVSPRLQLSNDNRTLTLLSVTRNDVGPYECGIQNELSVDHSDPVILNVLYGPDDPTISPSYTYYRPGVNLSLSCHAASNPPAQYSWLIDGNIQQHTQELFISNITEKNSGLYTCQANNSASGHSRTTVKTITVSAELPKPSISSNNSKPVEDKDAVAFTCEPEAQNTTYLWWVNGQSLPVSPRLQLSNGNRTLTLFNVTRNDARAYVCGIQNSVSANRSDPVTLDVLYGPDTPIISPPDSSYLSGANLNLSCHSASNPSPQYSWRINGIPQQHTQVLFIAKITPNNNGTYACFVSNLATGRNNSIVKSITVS
The data set is described as follows: activity in cells. The note with it: protein details: GAL4 DNA-BD fusion (pM vector), 293T cells.

No signal at the amounts used counts as a negative. Protein sequences can lack the tags named with them. For some of these results: Results from cells or extracts need not show a direct contact.

As to “GCGGAAGCGUGCUGGGCUAGAAUAAUAAUAAGAAAACCAGUACUUUCGU [Biotin-tagged YJ-1]”, the binding result in data set [1] (PBS + 1.5 mM MgCl2, no staining of CEA-negative HT29, protein on the cell surface, variant of Truncated GROUP 1-1 (19-1, YJ-1)) was “binds”.

With “GCGGAAGCGUGCUGGGCUAGAAUAAUAAUAAGAAAACCAGUACUUUCGU [YJ-1 expressed in cells (7SL promoter vector)]”, the “functional effect of the aptamer” value in data set [2] (blocks NCEA-DR5 interaction (SEAP not increased), protein in cells, variant of Truncated GROUP 1-1 (19-1, YJ-1)) was “active”.

Take “GCGGAAGCGUGCUGGGCUAGGGCGGCGGCGGGAAAACCAGUACUUUCGU [Biotin-tagged mutant YJ-1]”: the binding result in data set [1] (PBS + 1.5 mM MgCl2, protein on the cell surface, variant of Mutant GROUP 1-1 (m19-1, mutant YJ-1)) is “no binding”.

As to “GCGGAAGCGUGCUGGGCUAGGGCGGCGGCGGGAAAACCAGUACUUUCGU [Mutant YJ-1 expressed in cells (7SL promoter vector)]”, the “functional effect of the aptamer” value in data set [2] (SEAP still increased 2.5-fold, no inhibition of NCEA-DR5, protein in cells, variant of Mutant GROUP 1-1 (m19-1, mutant YJ-1)) was “not active”.

The record behind these values is patent publication US20140235698A1, “RNA Aptamer Specifically Binding to Carcinoembryonic Antigen and Use thereof” (POSCO, published 2014).
